In PubChem BioAssay AID445 (National Center for Advancing Translational Sciences (NCATS), 2006):
Some of the results follow. The main result of the screen is listed elsewhere. These columns were measured beside it and carry no call. Compounds called inactive in the main read-out are mostly missing here. Potencies come from curve fits of mixed quality, noted in brackets.

test: IkB Signaling; conditions: ABC-DLBCL IkBa-CBG/CBR dual luciferase ratio (green luciferase fused to IkBa over red control in OCI-Ly3 lymphoma cells), 4 h; measured here: control luc red channel unless noted
Summary of the method: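 Curves were fitted separately to fusion (green), unfused (red) and ratio luminescence, then classed by r2, magnitude and activity. Cells: OCI-Ly3, 4 h compound plus doxycycline at 37C; 10 uM MG-132 defined full response.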

SMILES | AC50
COc1cc(NC(=O)c2cc3sccc3n2C)cc(OC)c1 | 12.6 µM [falling, single point]
CCOc1ccc(Nc2c(S(=O)(=O)c3ccc(C)cc3)cnc3cc(OC)c(OC)cc23)cc1 | 0.316 µM [falling, full curve]
COc1ccc(CCNC(=O)c2ccc3c(c2)sc2nc(-c4ccc(C)cc4)cn23)cc1OC | 20 µM [falling, single point]
COC(=O)c1ccc(COC(=O)c2[nH]c(C)c(C(C)=O)c2C)o1 | 25.1 µM [falling, partial curve]
CC(=O)Nc1cccc(NC(=O)c2cc3ccccc3o2)c1 | 5.01 µM [falling, partial curve]
Cc1ccc(NC(=O)C2CCN(S(=O)(=O)c3ccc4c(c3)CCCC(=O)N4)CC2)c(Cl)c1 | 39.8 µM [falling, single point]
O=C(NCc1ccccc1Cl)c1ccc2c(c1)nnn2C1CCCC1 | 0.0316 µM [rising, full curve, poor fit]
O=C(NC1(C(F)(F)F)C(=O)Nc2c1c(=O)[nH]c(=O)n2CCc1ccccc1)c1ccc(Cl)cc1 (configuration not stated) | 7.94 µM [rising, single point] [measured here: IkB-luc green channel]
COc1ccc2c(c1)c1c(c(=O)n(Cc3ccccc3)c(=O)n1CC(=O)Nc1cc(C)cc(C)c1)n2C | 0.0794 µM [rising, full curve, poor fit]
Cc1cc(C)cc(NC(=O)CSc2oc(-c3ccco3)nc2S(=O)(=O)c2ccccc2)c1 | 12.6 µM [falling, partial curve]
Cc1cccc(N2CCN(C(=O)c3ccc4c(c3)c(C)c(C)n4C)CC2)c1C | 25.1 µM [falling, partial curve]
Cc1ccc(Cl)cc1NC(=O)CCCn1c(=O)c2cccn2c2ccccc21 | 15.8 µM [falling, partial curve]
Cc1ccc(CN2CCSc3ccc(C(=O)Nc4cc(C)cc(C)c4)cc32)cc1 | 15.8 µM [falling, partial curve]
CN1CCN(S(=O)(=O)c2ccc(NC(=O)c3csc4ccccc34)cc2)CC1 | 12.6 µM [falling, partial curve]
COc1cc2ncnc(Nc3cccc(Cl)c3)c2cc1OC | 6.31 µM [falling, partial curve, poor fit] [measured here: IkB-luc green channel]
COc1ccccc1NC(=O)N(Cc1ccco1)Cc1cc2cccc(C)c2[nH]c1=O | 10 µM [falling, partial curve]
COCCn1c(C)cc(O)c(C(c2ccccc2)N2CCN(CCO)CC2)c1=O (configuration not stated) | 0.0316 µM [falling, full curve, poor fit]
C=CCc1c(C)nc2nc(SCC(=O)Nc3cccc(Cl)c3)nn2c1C | 12.6 µM [falling, partial curve]
N[C@H](CCC(=O)N[C@H](CSN=O)C(=O)NCC(=O)O)C(=O)O | 12.6 µM [falling, partial curve]
Cc1nc2ccc(S(=O)(=O)N(C)CC(=O)N3CCc4ccccc4C3)cc2s1 | 31.6 µM [falling, single point]
Cc1cccc(-n2nnc(C(=O)N3CCc4ccccc4C3)c2N)c1 | 25.1 µM [falling, partial curve]

SMILES | AC50
CC(C)CN(CC(C)C)c1nc(-c2ccc(Cl)cc2)nc2ccccc12 | 25.1 µM [falling, partial curve]
Cc1c(Cl)cccc1NC(=O)c1ccc2c(c1)nnn2C1CCCC1 | 0.126 µM [rising, full curve, poor fit]
CCOC(=O)c1c(C)oc2nc(C)nc(N(CC(C)C)CC(C)C)c12 | 12.6 µM [falling, partial curve]
O=C(CCS(=O)(=O)c1ccccc1)N(Cc1cccnc1)c1nc2c(Cl)cccc2s1 | 15.8 µM [falling, single point]
CCc1ccc(NC(=O)c2ccc3c(=O)n4nc(Nc5ccccc5C)sc4nc3c2)cc1 | 5.01 µM [falling, partial curve]
O=C(O)c1ccccc1NS(=O)(=O)c1ccc2c3c(cccc13)C(=O)N2 | 12.6 µM [falling, partial curve]
O=C(c1ccc(Cn2c(=O)[nH]c3ccccc3c2=O)cc1)N1CCN(c2ccc(F)cc2)CC1 | 15.8 µM [falling, partial curve]
Clc1ccc(Nc2c(-c3cccs3)nc3ccc(Cl)cn23)cc1 | 0.501 µM [rising, full curve, poor fit]
COc1ccc(-c2noc(N(C)CC(=O)Nc3cccc(C(F)(F)F)c3)n2)cc1 | 12.6 µM [falling, partial curve]
Cc1ccc(NC(=O)c2cc(NC(=O)c3ccco3)ccc2N2CCCCC2)cc1 | 0.0398 µM [falling, full curve]
CC(=O)c1cccc(NC(=O)CSc2nnc3ccc(-c4ccc(Cl)cc4)nn23)c1 | 0.501 µM [rising, full curve, poor fit]
Cc1ccc(Cl)cc1NC(=O)c1sc2nc(-c3ccccc3)cn2c1C | 2.51 µM [rising, partial curve]
Clc1c(CSc2nc3ccccc3o2)nc2sccn12 | 0.631 µM [rising, partial curve]
COc1ccccc1CNS(=O)(=O)c1ccc(-c2cc(C(F)(F)F)on2)s1 | 31.6 µM [falling, partial curve]
COc1ccc(C2=C(C(C)=O)Sc3nnc(-c4ccc(C)cc4)n3N2C(C)=O)cc1OC | 3.98 µM [falling, partial curve]
COc1ccc(OC)c(C2c3c(-c4ccc(Br)cc4)n[nH]c3C(=O)N2c2ccc(Cl)cc2)c1 (configuration not stated) | 3.98 µM [falling, single point]
CCOC(=O)c1c(Nc2cccc(C(=O)OC)c2)nnc(-c2ccccc2)c1-c1ccccc1 | 7.94 µM [falling, partial curve]
O=C(Cc1ccccc1)N1CCC(c2nc(-c3ccc(F)cc3)no2)CC1 | 15.8 µM [falling, partial curve]
Cc1ccc(NC2c3ncccc3C(=O)N2C2CCCCC2)cc1C (configuration not stated) | 20 µM [falling, partial curve]
CCOc1ccccc1-c1noc(CSc2nnc(-c3ccccc3)n2-c2cccc(C)c2)n1 | 15.8 µM [falling, partial curve]
c1ccc(CC2CCN(Cc3nc(-c4ccccc4)no3)CC2)cc1 | 12.6 µM [falling, partial curve, poor fit]

SMILES | AC50
COc1ccccc1C(=O)Nc1ccc(NC(=O)c2cccs2)cc1 | 39.8 µM [falling, single point]
COc1ccc(Nc2cc(C(=O)NCCCN(C)Cc3ccccc3)c3ccccc3n2)c(OC)c1 | 12.6 µM [falling, partial curve]
COc1cc(-c2nc3ccccn3c2Nc2ccccc2C)ccc1O | 15.8 µM [falling, partial curve]
CCc1ccc(CN2C(=O)c3ccccc3C2C(=O)NC2CCCCCC2)cc1 (configuration not stated) | 20 µM [falling, partial curve]
CC(C)(C)C(=O)Nc1ccc(-c2nc3ccccc3s2)cc1 | 0.0501 µM [rising, full curve]
COc1ccccc1OCc1nc2ccccc2[nH]1 | 12.6 µM [falling, partial curve]
CCc1ccccc1Nc1nn2c(=O)c3ccc(C(=O)NC4CCC(C)CC4)cc3nc2s1 (configuration not stated) | 25.1 µM [falling, single point]
CCOc1cc(C(=O)N(Cc2nc(-c3ccc(C)cc3)no2)C(C)C)cc(OCC)c1OCC | 20 µM [falling, partial curve]
CCc1cnc2c(c1SCc1c(F)cccc1Cl)c(=O)n(C)c(=O)n2C | 12.6 µM [falling, partial curve]
Cc1nn(C(=O)COc2ccc(Cl)cc2)c(C)c1Sc1ccccc1 | 12.6 µM [falling, partial curve]
CCOC(=O)c1ccc(NC(=O)CC2C(=O)N(c3ccccc3)C(=O)N2Cc2ccc(C)cc2)cc1 (configuration not stated) | 12.6 µM [falling, partial curve]
COc1ccc(C(=O)Nc2cnc3ccccn3c2=O)cc1 | 10 µM [falling, partial curve]
CCOC(=O)c1c(NC(=O)c2ccc(S(=O)(=O)N3CCC(C)CC3)cc2)sc2c1CCN(C(C)C)C2 | 25.1 µM [falling, single point]
Cc1ccc2[nH]c(=O)c(CN(CCN3CCOCC3)C(=O)Nc3ccc(F)cc3)cc2c1 | 25.1 µM [falling, single point]
O=C(NCc1ccc(F)cc1)c1c2c(nc3ccccc13)C(=O)N(C1CCCCC1)C2 | 20 µM [falling, partial curve]
Cc1cccc(CCNC(=O)C2CCC(CNS(=O)(=O)c3c(C)cc(C)cc3C)CC2)c1 (configuration not stated) | 15.8 µM [falling, partial curve]
O=C(Cc1ccc(NC(=O)N2CCCCc3ccccc32)cc1)NCc1ccccc1Br | 15.8 µM [falling, partial curve]
N#Cc1ccc(OC(=O)c2cc(-c3ccc(Cl)cc3)on2)cc1 | 39.8 µM [falling, single point]
Cc1ccc(NC(=O)CN(C)S(=O)(=O)c2ccc3c(c2)n(C)c(=O)c(=O)n3C)c(C)c1 | 25.1 µM [falling, single point]
O=C(CSc1nnc(CNc2ccc(Cl)cc2)n1Cc1ccccc1)NCc1ccco1 | 15.8 µM [falling, partial curve]

2 of the compounds above, as a markdown table:

| SMILES | AC50 |
| --- | --- |
| COc1cc(-c2nc3ccccn3c2Nc2ccccc2C)ccc1O | 15.8 µM [falling, partial curve] |
| CCc1ccc(CN2C(=O)c3ccccc3C2C(=O)NC2CCCCCC2)cc1 (configuration not stated) | 20 µM [falling, partial curve] |
